Results on 54 sequences are retold here after paper PMC7819943, “Rice protein-binding microarrays: a tool to detect cis-acting elements near promoter regions in rice”.

Some of the results follow.

The experiment has as its target T1, OsSMF1 (Oryza sativa, UniProt Q6ZLB0 1-436).
T1 sequence: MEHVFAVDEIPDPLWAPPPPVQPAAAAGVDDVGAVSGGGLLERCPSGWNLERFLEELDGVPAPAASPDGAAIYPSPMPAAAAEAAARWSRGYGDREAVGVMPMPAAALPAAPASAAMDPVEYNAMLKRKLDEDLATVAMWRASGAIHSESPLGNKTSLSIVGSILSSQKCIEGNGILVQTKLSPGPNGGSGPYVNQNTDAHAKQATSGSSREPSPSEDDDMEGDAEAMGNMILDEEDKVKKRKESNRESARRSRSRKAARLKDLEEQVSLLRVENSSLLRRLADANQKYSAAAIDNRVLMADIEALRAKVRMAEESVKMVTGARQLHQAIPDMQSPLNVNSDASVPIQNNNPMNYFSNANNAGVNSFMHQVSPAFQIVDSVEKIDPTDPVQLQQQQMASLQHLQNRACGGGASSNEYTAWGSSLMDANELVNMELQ
The experiment can be described thus: protein-binding microarray (RPBM); PBS, 2% BSA, 51.3 ng/ul salmon testes DNA, 50 uM zinc acetate, 200 nM TF, 25 C, 1 h; high values mean tight binding. The settings on record: protein: recombinant; tags: N-terminal polyhistidine and DsRed monomer fusion (pET32a); chain copies: 2; label: CyDye5-dUTP incorporated in the synthesized complementary strand; 3' TTTTT single-stranded linker to array surface; dsDNA, one strand shown. The method, boiled down:
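Using Ni–NTA, transcription factors fused N-terminally to polyhistidine and DsRed were purified after expression in E. coli BL21-CodonPlus. These were incubated at 200 nM with a blocked, double-stranded custom Agilent array for 1 h at 25 °C in a buffer containing 50 µM zinc acetate, and the array was washed. The binding signal is per-feature fluorescence intensity (arbitrary units) on an Axon 4000B scanner.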
As for “AAAAGGGTATAATAGTAGCATTCAAATCATTGATGCACACCGGAGTCACCTAGTGCAG”, the binding signal was 3190 fluorescence intensity (a.u.).
Next, “CATACACCTTATGATTAGATAAGTATGTGTCACCAGGAATCGGAGTCACCTAGTGCAG”: 5240 fluorescence intensity (a.u.); “CTAACATGTGAGCCTGAGGGTGGTATGACTCACATGAAAGCGGAGTCACCTAGTGCAG”: 6940 fluorescence intensity (a.u.).
Regarding “CTCTGGGCCACGGCCCATGCCCGACGGCCGACGTGTCTCGCGGAGTCACCTAGTGCAG”, the binding signal is 6570 fluorescence intensity (a.u.).
Next, “CAGGTGAGGCCGGCAATGACGTGGTCAGCACTGACGAGTCCGGAGTCACCTAGTGCAG”: 8010 fluorescence intensity (a.u.); “ACGAGTCGCTGCATTCGATGTGATTACTTCTAAACTATTTCGGAGTCACCTAGTGCAG”: 3400 fluorescence intensity (a.u.); “GCAGGCAGGAGAGCGAATGGCAGGTCCGGTAATTACGCGGCGGAGTCACCTAGTGCAG”: 37200 fluorescence intensity (a.u.).
As to “CAACAATCCGTAATCCCGTTGCCACGCCAGATATATCTCGCGGAGTCACCTAGTGCAG”, the binding signal was 4030 fluorescence intensity (a.u.).
Turning to “AAATTGACAAGCTCATGGACTCCCCGTAGATCCGCGATTTCGGAGTCACCTAGTGCAG”, the binding signal is 4250 fluorescence intensity (a.u.).
Next, “GCAAGCGAGTTGCGTGACTCGCGTCACTCCTCACCACCACCGGAGTCACCTAGTGCAG”: 15200 fluorescence intensity (a.u.); “ACAACCTCCAACCGCGCCACATCACTCTATCACAACCTAGCGGAGTCACCTAGTGCAG”: 7230 fluorescence intensity (a.u.).
With “TGTGGTTTTCTAGTTAATTAACAAGCTAGCTATACCTAGCCGGAGTCACCTAGTGCAG” the figure was 7160 fluorescence intensity (a.u.); with “AAAGTCAACATCAAAGCAAATCAACTCTTGAAGGAACGACCGGAGTCACCTAGTGCAG”, 19200 fluorescence intensity (a.u.).
For the sequence “AACCACACGATCGATGCACGTCAAGTATACGCATACTCCGCGGAGTCACCTAGTGCAG”, the binding signal is 4140 fluorescence intensity (a.u.).
Next, “CCCATCTCGCTAGCCGCCGCCGGCCACAACCATTCCTCACCGGAGTCACCTAGTGCAG”: 3640 fluorescence intensity (a.u.); “TCAGTCCTCCACATGACCCCACCTGTCATCCACATCACCGCGGAGTCACCTAGTGCAG”: 8400 fluorescence intensity (a.u.); “ATAAAGGGAGAAGTATCATTGACAACGCATAGAGGCTACACGGAGTCACCTAGTGCAG”: 3140 fluorescence intensity (a.u.).
With “TCATGCGGAAAACTGGTGTGGAAGGGGCGCGTTTGTGTTGCGGAGTCACCTAGTGCAG”, the binding signal is 3940 fluorescence intensity (a.u.).
Next, “CAAAACCGCACTAGTCACTAGTAGCTCACCTCCAACATTTCGGAGTCACCTAGTGCAG”: 3620 fluorescence intensity (a.u.); “ATGCCGGTCGCCGGAGCCGGCCACCGTGTACGTGCCAGACCGGAGTCACCTAGTGCAG”: 4310 fluorescence intensity (a.u.).
On to “GCGCGAGCATCAGCGGTTTTGTTGCGTAACACCGAATGTACGGAGTCACCTAGTGCAG”, for which the binding signal was 7910 fluorescence intensity (a.u.).
Turning to “TTTCTATAAATTGTAATGAAAATAACAAATAAAACTCAAACGGAGTCACCTAGTGCAG”, the binding signal is 4500 fluorescence intensity (a.u.).
In the case of “CGCGACACGACACGACACGACACGACGGCACGAGCCCACCCGGAGTCACCTAGTGCAG”, the binding signal is 4540 fluorescence intensity (a.u.).
With “ATCCTGTGCAACACGGCAACGCCGGATCCGTGCAAAACCACGGAGTCACCTAGTGCAG” the figure was 3410 fluorescence intensity (a.u.); with “ACTGGCTGAGTCAGCTTGTGGGACCCATATGTCAGTGACACGGAGTCACCTAGTGCAG”, 11700 fluorescence intensity (a.u.).
Next, “CGCCTTGGCCCGACCCACGTCGATGAGCCACACCGGGGTGCGGAGTCACCTAGTGCAG”: 3870 fluorescence intensity (a.u.).
With “TTTGATCAGAGATGCATAAGTCATGAATTTTATTTAGGCCCGGAGTCACCTAGTGCAG” the figure was 3500 fluorescence intensity (a.u.); with “GCTAGGGCAGAGGCTAGAGCCACGCACCCTAAATGTCCCACGGAGTCACCTAGTGCAG”, 3570 fluorescence intensity (a.u.).
On to “ATTAGTATTCCCTCCCATCATTAATATATGACGTTAGTGTCGGAGTCACCTAGTGCAG”, for which the binding signal was 4550 fluorescence intensity (a.u.).
With “TGGATCCTGGCGCGCTCTGCCGCCGCCGCGTCGCCCACGACGGAGTCACCTAGTGCAG” the figure was 30200 fluorescence intensity (a.u.).
Consider “TTTTCCTGTGCGGGTGACGTGGAGCAGCATCGAAATCGAACGGAGTCACCTAGTGCAG”, for which the binding signal is 10200 fluorescence intensity (a.u.).
On to “CCCGGACTCCTCATCGGACTCGCCGTCGTAGCGCTCATCCCGGAGTCACCTAGTGCAG”, for which the binding signal is 4400 fluorescence intensity (a.u.).
“TGTTGCTGTGTCGTGTGGTCGTGACTCGTGTGACTCGGTGCGGAGTCACCTAGTGCAG”: the binding signal was 5260 fluorescence intensity (a.u.).
With “CATTAATCCGCTCGATCGCCACGTGATCCTGTTGTGTCTTCGGAGTCACCTAGTGCAG” the figure was 4930 fluorescence intensity (a.u.); with “GCCGTTGTTATGAACGGATACGATACGTGTACCACTTTGTCGGAGTCACCTAGTGCAG”, 3340 fluorescence intensity (a.u.); with “GGCCGTGCCATGCCGTGCCAGCCCTCTACAGTAAACGTGCCGGAGTCACCTAGTGCAG”, 3250 fluorescence intensity (a.u.).
With “GCAGGGCCAAGTACGCGCTGCCACCTGACGTGTCGTGGAGCGGAGTCACCTAGTGCAG”, the binding signal is 14000 fluorescence intensity (a.u.).
Turning to “CGCGGCTACGGCTGAGCGGAGGCTACTACGGCGGCAGCTGCGGAGTCACCTAGTGCAG”, the binding signal is 3540 fluorescence intensity (a.u.).
Next, “ATAGTAAATTTCGGTACGGTTTATCCTAGTTGGCATTGGCCGGAGTCACCTAGTGCAG”: 4070 fluorescence intensity (a.u.).
As for “CATTCATGTAAATTGTGTTACATGTCATCTCCATAAGTATCGGAGTCACCTAGTGCAG”, the binding signal is 3160 fluorescence intensity (a.u.).
With “TTTTAGAGTATGACACGTGGGTCTCAAAGTTAAGAAAGTGCGGAGTCACCTAGTGCAG” the figure was 11500 fluorescence intensity (a.u.); with “CGCGTTCCGTACGCTCGCGCACCGTCCACGTGGCGCCCCTCGGAGTCACCTAGTGCAG”, 26900 fluorescence intensity (a.u.); with “GAACCCTAGTTCCTCTTTGCCTTTCCGCTTCTCCGCGCCCCGGAGTCACCTAGTGCAG”, 3750 fluorescence intensity (a.u.).
As to “TCTGATACTCTGATGTCATCATAACACTTAGTCAAACCTACGGAGTCACCTAGTGCAG”, the binding signal is 3510 fluorescence intensity (a.u.).
Take “GGACACACACCCACACGCGCATCCATCCATCCATCCATCCCGGAGTCACCTAGTGCAG”: the binding signal was 3220 fluorescence intensity (a.u.).
Next, “AAGGTGACCTTTCACTGTTGCTTTGCTTGTGATGCGTAGTCGGAGTCACCTAGTGCAG”: 3360 fluorescence intensity (a.u.); “TGTCGGTACTTTCATACGTCATCTATGTATGAGTCGGTTTCGGAGTCACCTAGTGCAG”: 10600 fluorescence intensity (a.u.).
With “CCCAAATATCCACATCTAGCATATTTATTTTCTTTCCAATCGGAGTCACCTAGTGCAG” the figure was 3780 fluorescence intensity (a.u.); with “TCTGACCTACGTGGCACAGGCGTGCCACGTGGACGATGAGCGGAGTCACCTAGTGCAG”, 24000 fluorescence intensity (a.u.).
With “TTCGATCTCTCTCAAGGTCTCACCAACCAGCCGATCGAAGCGGAGTCACCTAGTGCAG” the figure was 3770 fluorescence intensity (a.u.); with “GAAGGCGGCGCGGAAGTCGGCGCCGGCGACCGGCGGCGTGCGGAGTCACCTAGTGCAG”, 9120 fluorescence intensity (a.u.); with “AAATTAAACGACTTGTAATATGAGTCAGGGTATTACAATACGGAGTCACCTAGTGCAG”, 5500 fluorescence intensity (a.u.).
Regarding “AATCCATTATCCATTCCTTTCCTTTCCGGTGACATGTAGTCGGAGTCACCTAGTGCAG”, the binding signal is 3270 fluorescence intensity (a.u.).
Next, “TACTTATCCCAAGCTGTACATGATGCTGTTACATGATGCTCGGAGTCACCTAGTGCAG”: 25800 fluorescence intensity (a.u.).
